The record followed here is patent publication US8470340B2 (priority 2008, dated 2013).

End groups of sequences in plain letters are not given here.

One series is described as follows: peptide synthesis. Conditions: whole synthesis.
Consider FDFIRQIEVDGQLITLESGEDPAKC, for which the “purity (crude or final not stated)” value was determined as 85.4%. As for HFVQQTPQSQDPAKC (conjugated to KLH), the “purity (crude or final not stated)” value is given as 81.9%. Turning to “ALTAPLDHKDKGLQSDPAKC (conjugated to KLH)”, the “purity (crude or final not stated)” value worked out at 80.8%. With “TKDDPLKQHLALSAGDPAKC (conjugated to KLH)”, the “purity (crude or final not stated)” value was found to be 91.0%. Still for that read-out and setting: then AQAFQTPVHSDPAKC (conjugated to KLH), with 91.5%; and “AEGEFWTLAVFDHKAQTGDPAKC (conjugated to KLH)”, with 92.0%. As for AEGEFHDHKTQLDPDPAKC (conjugated to KLH), the “purity (crude or final not stated)” value was 96.9%. Same read-out and setting: then AEGEFHDHKLEGTEDPAKC (conjugated to KLH), with 89.1%.

Still in this series, the particulars now being: whole synthesis, one disulfide bridge, sequence written open.
AEGEFCGGVYDDKTGCAPDPAKC: the “purity (crude or final not stated)” value amounted to 75.6%.
